3 molecules from publication PMC11758950 can be followed below.

No constants are given. Whether binding was seen depends on the method and setting. Binding seen in cells or lysates may run through a third protein. Some binding calls cover weakened binding; strength is not graded here. Tags and fused reporters may be left off the sequences shown.

Assay [1] has as its target T1, ELFN1-nLuc (mouse) (UniProt Q8C8T7).
T1 sequence: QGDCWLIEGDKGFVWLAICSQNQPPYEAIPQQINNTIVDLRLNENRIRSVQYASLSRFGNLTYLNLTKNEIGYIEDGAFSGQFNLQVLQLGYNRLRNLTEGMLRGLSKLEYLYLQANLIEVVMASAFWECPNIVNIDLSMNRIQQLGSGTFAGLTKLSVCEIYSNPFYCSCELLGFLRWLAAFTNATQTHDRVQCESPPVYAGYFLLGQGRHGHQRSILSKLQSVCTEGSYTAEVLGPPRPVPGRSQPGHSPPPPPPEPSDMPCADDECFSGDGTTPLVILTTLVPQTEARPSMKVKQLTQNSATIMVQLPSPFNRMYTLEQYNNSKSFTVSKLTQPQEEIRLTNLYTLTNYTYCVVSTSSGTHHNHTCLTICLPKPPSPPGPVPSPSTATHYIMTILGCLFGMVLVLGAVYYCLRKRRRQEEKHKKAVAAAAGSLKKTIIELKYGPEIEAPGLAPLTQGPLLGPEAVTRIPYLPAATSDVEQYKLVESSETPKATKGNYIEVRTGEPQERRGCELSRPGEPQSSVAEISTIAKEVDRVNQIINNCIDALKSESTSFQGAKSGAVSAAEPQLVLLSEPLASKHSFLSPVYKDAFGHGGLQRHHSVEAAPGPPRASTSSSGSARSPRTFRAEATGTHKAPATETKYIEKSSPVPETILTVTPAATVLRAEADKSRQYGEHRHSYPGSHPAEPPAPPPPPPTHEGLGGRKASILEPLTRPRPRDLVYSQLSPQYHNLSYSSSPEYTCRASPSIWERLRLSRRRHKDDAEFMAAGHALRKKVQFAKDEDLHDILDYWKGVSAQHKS
The experiment in a line: FRET or BRET; donor/acceptor titration BRET in live transfected HEK 293 T/17 cells; constant nLuc donor construct (5 ng), increasing Venus acceptor construct (0-2.4 ug); Nano-Glo reagent 0.1%; ratio 535 nm / 460 nm.

In another assay the target is T2, ELFN2-nLuc (UniProt Q68FM6).
T2 sequence: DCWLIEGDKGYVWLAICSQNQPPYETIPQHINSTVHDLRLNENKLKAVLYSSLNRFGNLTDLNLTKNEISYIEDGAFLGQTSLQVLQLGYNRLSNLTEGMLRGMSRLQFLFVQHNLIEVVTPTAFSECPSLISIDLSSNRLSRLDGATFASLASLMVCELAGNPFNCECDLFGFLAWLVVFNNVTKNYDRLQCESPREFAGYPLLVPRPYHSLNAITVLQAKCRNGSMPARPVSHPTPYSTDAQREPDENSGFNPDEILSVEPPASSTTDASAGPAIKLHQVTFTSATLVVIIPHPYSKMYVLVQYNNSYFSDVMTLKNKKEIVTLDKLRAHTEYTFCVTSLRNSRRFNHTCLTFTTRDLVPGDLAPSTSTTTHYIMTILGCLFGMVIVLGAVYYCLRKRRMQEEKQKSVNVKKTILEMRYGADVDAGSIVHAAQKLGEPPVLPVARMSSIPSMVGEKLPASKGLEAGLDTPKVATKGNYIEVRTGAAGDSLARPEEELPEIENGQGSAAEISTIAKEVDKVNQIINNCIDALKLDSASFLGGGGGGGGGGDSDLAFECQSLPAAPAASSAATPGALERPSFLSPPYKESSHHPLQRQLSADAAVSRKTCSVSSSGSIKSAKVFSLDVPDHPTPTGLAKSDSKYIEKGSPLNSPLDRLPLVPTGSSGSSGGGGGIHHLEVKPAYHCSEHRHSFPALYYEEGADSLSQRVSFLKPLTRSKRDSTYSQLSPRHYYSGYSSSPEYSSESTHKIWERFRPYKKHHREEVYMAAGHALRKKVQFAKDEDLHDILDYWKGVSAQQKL
The assay is described as above.

The target in assay [2] is T1, ELFN1-nLuc (mouse). Kind of assay: FRET or BRET; BRET disruption (competition) in live HEK 293 T/17 cells: stable levels of ELFN1-nLuc and ELFN1-Venus below saturation, co-expression of pcDNA3.1, ELFN1-myc or ELFN1ΔLRR-myc.
The target of the next assay is T3, ELFN1-Venus (mouse) (UniProt Q8C8T7).
T3 sequence: T1 sequence
The experiment in a line: co-IP; co-transfected HEK 293 T/17 cells (2.5 ug of each construct), 1% Triton-X lysis buffer; Protein G Sepharose beads with mouse GFP antibody, 1 h at 4 C, washed 3 times; blot with myc antibody.

The target of the next assay is T4, EctoELFN1-Fc (mouse) (UniProt Q8C8T7).
T4 sequence: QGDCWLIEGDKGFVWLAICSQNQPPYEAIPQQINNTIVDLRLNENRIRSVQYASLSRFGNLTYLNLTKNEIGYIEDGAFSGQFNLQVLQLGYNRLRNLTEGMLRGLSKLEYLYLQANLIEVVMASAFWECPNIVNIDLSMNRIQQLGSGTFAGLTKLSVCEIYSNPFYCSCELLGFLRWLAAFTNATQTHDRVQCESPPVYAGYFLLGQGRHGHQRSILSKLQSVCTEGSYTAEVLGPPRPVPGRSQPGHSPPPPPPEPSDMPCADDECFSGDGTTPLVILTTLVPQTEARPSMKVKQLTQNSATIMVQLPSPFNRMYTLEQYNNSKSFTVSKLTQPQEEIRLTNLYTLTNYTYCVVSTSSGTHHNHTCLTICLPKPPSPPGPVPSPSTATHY
The experiment in a line: pull-down; Fc or EctoELFN1-Fc secreted into OPTI-MEM (48 h) incubated with Protein G Sepharose beads and lysate of ELFN1-myc or ELFN2-myc transfected HEK 293 T/17 cells in 1% Triton-X lysis buffer, 1 h at 4 C, washed 3 times; blot with myc antibody.

B1: ELFN2-Venus (protein, UniProt Q68FM6 23-823)
chain: T2 sequence
Regarding B1, the binding entry with ELFN1-nLuc (mouse) [1] and in the assay with ELFN2-nLuc was “binds” each time.

B2: ELFN1-Venus (protein, UniProt Q8C8T7 26-828)
chain: T1 sequence
With B2, the binding result in the assay with ELFN1-nLuc (mouse) [2] and with ELFN1-nLuc (mouse) [1] was “binds” throughout.

B3: ELFN1-myc (protein, UniProt Q8C8T7 26-828)
chain: T1 sequence
As to B3, the binding result with ELFN1-Venus (mouse) and in the assay with EctoELFN1-Fc (mouse) was “binds” each time.
